The list shows a part of the results. Most entries show no effect beyond the scatter of the controls.
compound: CN[C@@H]1C[C@H]2O[C@@](C)([C@@H]1OC)n1c3ccccc3c3c4c(c5c6ccccc6n2c5c31)C(=O)NC4 [staurosporine]; test: log2 fold change of pooled soluble protein (PISA), ligand vs vehicle (log2 ratio); higher = more thermally stabilized; conditions: ligand concentration: 20 uM; assay format: PISA pool 52.9/55.5/58.6 C

By UniProt entry, the sequences of proteins in these tests, tags left out. Where a name states a change or a piece, a line headed by the entry shows the natural chain unless it says otherwise.
UniProt Q921M4: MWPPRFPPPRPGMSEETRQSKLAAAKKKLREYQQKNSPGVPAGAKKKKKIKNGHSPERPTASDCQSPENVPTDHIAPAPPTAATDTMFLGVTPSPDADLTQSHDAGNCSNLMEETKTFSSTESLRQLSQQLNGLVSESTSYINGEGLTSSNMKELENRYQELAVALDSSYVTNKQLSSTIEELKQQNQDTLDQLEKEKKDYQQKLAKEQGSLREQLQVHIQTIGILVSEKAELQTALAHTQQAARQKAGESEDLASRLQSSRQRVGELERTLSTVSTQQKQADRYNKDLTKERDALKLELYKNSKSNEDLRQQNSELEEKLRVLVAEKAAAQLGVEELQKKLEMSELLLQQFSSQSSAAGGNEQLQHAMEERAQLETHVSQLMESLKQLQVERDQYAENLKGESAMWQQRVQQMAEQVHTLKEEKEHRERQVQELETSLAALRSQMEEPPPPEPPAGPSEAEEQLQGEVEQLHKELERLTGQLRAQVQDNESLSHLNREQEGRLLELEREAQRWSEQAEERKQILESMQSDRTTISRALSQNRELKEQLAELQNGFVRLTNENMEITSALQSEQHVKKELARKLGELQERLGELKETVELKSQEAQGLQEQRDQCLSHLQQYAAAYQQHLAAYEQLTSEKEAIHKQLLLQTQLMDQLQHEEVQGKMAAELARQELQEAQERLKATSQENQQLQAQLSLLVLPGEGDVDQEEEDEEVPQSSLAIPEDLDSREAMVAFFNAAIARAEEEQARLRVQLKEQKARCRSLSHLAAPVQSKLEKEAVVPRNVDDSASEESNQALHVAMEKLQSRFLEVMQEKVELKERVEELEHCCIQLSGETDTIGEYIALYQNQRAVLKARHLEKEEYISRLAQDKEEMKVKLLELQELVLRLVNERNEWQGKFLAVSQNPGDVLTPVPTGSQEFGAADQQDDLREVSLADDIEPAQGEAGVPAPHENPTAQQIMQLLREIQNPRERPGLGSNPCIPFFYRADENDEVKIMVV
UniProt Q923D2: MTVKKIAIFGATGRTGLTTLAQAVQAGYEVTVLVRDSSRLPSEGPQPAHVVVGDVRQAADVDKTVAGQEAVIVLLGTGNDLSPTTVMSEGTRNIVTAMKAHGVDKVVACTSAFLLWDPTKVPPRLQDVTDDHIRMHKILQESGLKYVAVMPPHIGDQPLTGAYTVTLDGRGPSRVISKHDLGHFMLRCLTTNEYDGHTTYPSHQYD
UniProt Q91YE3: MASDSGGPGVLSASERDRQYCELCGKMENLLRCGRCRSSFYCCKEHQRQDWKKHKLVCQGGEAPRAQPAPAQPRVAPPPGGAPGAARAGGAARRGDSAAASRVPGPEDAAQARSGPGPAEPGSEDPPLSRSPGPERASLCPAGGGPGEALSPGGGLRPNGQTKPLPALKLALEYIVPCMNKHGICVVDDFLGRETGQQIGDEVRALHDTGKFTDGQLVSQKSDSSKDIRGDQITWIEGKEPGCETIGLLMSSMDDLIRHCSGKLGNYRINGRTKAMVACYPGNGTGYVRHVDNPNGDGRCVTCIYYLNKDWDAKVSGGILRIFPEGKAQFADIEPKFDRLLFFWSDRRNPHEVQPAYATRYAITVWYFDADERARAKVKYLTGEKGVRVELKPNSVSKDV
UniProt Q921T2: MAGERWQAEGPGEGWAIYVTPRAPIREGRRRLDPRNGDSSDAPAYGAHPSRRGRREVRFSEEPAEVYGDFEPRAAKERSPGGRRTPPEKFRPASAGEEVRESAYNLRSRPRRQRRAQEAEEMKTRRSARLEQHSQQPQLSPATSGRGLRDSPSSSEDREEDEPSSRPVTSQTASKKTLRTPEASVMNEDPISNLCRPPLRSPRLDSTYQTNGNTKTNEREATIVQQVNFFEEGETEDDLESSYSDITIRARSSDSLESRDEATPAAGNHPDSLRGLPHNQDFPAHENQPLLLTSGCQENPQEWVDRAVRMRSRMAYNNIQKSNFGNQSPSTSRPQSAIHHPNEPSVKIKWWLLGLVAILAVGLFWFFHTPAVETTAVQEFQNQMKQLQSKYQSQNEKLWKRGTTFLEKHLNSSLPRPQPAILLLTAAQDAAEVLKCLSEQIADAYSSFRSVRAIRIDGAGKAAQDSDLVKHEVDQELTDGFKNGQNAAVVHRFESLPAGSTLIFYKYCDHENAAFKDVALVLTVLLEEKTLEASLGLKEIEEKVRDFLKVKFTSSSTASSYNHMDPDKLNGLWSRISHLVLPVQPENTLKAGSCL
UniProt Q8VE95: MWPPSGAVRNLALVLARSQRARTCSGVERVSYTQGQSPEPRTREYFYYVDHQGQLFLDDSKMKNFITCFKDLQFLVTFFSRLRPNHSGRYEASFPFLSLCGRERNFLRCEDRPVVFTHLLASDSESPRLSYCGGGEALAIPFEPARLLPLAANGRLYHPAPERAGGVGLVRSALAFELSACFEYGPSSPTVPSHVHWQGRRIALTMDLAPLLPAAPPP
UniProt Q91W89: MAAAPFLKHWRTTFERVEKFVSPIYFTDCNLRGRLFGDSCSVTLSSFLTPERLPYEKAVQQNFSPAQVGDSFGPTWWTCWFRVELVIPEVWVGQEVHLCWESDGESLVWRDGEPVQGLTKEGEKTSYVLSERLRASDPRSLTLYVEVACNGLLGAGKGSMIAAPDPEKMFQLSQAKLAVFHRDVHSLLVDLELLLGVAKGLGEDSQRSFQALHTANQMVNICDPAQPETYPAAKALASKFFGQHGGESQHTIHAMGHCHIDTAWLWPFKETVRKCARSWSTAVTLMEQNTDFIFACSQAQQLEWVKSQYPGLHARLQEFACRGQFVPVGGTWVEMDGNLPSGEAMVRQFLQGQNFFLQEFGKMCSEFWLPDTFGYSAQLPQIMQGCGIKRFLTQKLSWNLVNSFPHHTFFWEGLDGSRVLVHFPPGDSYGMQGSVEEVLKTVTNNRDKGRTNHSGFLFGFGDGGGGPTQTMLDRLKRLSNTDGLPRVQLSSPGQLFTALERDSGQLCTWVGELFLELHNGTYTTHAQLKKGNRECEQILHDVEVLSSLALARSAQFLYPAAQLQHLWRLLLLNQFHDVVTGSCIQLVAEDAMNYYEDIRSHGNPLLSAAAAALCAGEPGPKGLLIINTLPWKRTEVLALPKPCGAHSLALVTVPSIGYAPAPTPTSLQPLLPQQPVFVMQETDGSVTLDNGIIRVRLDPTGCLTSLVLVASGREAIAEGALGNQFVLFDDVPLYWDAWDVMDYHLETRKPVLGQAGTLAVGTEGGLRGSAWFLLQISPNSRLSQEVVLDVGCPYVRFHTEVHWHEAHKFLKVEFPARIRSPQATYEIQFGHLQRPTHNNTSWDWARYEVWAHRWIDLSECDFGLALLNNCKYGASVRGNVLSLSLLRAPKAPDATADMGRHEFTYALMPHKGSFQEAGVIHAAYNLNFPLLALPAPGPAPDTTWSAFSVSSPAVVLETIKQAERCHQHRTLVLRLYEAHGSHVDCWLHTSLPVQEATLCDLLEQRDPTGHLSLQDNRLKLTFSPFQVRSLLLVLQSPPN
UniProt Q922J3: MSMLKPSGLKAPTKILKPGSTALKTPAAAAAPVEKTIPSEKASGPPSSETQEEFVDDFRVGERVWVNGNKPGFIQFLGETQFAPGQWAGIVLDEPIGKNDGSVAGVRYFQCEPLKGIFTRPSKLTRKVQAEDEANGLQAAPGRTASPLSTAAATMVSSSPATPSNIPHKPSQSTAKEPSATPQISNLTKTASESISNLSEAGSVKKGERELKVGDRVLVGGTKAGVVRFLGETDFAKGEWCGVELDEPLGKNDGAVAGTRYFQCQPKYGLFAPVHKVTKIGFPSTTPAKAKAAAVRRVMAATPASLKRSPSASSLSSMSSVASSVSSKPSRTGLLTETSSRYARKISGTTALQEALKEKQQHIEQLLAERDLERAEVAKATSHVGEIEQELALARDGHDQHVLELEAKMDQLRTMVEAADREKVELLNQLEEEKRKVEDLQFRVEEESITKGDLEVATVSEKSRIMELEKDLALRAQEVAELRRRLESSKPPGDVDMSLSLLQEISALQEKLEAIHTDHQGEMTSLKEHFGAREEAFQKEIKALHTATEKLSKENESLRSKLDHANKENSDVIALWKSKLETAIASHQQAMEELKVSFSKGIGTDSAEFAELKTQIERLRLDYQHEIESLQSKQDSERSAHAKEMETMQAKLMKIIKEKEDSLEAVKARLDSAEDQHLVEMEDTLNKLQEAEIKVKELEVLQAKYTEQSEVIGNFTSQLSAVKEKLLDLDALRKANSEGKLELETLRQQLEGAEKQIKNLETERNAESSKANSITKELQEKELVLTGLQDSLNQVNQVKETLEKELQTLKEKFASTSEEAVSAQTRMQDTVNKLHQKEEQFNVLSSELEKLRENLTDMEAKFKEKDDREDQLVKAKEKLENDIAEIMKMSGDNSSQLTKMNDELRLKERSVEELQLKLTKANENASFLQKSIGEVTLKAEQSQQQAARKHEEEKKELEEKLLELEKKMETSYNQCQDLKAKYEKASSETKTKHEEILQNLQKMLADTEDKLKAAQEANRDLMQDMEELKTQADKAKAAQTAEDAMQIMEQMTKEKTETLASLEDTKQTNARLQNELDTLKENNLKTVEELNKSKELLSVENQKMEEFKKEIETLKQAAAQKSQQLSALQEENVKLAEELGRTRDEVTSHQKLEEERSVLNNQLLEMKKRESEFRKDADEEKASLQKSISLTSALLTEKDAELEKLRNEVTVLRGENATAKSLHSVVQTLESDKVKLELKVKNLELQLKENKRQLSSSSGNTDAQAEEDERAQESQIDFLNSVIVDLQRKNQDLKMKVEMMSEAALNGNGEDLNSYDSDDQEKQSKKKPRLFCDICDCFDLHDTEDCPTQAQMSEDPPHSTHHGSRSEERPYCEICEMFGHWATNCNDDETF
UniProt Q91WM2: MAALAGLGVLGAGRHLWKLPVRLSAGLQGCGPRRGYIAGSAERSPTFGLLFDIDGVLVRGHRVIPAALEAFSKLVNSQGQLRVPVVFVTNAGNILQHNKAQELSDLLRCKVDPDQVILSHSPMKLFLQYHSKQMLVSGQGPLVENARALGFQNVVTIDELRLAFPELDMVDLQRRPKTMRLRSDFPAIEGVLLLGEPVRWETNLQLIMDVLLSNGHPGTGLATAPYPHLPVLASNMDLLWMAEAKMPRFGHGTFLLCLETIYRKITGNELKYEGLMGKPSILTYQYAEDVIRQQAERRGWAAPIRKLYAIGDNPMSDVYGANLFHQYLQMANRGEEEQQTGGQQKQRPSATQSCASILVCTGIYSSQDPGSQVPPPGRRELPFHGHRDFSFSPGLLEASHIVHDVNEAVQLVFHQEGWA
UniProt Q91VU6, whole entry: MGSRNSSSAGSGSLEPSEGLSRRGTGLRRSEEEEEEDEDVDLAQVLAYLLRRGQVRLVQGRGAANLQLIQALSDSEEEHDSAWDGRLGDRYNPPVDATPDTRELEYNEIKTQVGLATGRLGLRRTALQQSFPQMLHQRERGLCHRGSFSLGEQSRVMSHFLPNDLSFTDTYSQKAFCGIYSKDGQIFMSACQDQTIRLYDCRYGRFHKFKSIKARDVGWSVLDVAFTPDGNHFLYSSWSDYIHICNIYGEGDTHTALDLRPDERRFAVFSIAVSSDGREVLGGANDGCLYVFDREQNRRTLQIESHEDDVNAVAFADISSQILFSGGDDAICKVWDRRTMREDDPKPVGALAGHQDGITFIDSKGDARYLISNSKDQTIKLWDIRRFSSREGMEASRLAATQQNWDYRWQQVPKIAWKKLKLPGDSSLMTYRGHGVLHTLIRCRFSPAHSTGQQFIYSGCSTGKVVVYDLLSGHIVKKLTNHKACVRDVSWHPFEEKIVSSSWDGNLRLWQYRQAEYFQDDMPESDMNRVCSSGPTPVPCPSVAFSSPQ
UniProt Q91ZZ3, whole entry: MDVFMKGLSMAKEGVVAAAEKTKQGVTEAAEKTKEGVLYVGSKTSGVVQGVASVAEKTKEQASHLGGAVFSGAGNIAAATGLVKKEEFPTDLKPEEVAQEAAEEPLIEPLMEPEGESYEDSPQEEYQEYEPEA
UniProt Q91WJ8: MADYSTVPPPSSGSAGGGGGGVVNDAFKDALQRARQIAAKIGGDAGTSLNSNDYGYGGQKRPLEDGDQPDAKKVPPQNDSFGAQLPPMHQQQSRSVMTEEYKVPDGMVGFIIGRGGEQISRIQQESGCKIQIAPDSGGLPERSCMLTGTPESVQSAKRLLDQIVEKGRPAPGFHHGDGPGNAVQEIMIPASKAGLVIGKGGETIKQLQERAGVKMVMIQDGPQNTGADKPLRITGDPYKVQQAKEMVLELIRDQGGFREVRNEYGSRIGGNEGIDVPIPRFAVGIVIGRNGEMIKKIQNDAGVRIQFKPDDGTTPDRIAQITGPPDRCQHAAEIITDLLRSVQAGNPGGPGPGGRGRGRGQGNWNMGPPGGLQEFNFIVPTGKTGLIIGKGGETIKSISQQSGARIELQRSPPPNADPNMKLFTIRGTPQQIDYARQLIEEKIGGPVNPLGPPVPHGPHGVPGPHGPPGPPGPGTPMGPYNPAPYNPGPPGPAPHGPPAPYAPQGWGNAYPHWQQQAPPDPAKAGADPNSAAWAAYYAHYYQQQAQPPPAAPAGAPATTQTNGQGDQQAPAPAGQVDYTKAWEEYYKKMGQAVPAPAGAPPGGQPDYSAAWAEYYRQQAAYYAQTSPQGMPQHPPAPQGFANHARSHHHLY

| Target | log2 fold change of pooled soluble protein |
| --- | --- |
| UniProt Q91WV0 | 0.123 |
| UniProt Q921M4 | -0.0664 |
| UniProt Q91WU5 | 0.0839 |
| UniProt Q8VE97 | -0.0932 |
| UniProt Q8VE96 | 0.045 |
| UniProt Q923D2 | 0.00887 |
| UniProt Q8VDQ1 | -0.0472 |
| UniProt Q91YE3 | 0.254 |
| UniProt Q8VCT3 | 0.126 |
| UniProt Q8VDN2 | -0.0774 |
| UniProt Q921T2 | 0.0119 |
| UniProt Q8VCW4 | 0.476 |
| UniProt Q8VE95 | -0.0471 |
| UniProt Q922B1 | 0.116 |
| UniProt Q91VD9 | -0.0516 |
| UniProt Q91VC4 | -0.0298 |
| UniProt Q91VS8 | -0.361 |
| UniProt Q8VDM4 | -0.086 |
| UniProt Q91W89 | 0.0452 |

| Target | log2 fold change of pooled soluble protein |
| --- | --- |
| UniProt Q922J3 | -0.0117 |
| UniProt Q91WM2 | -0.213 |
| UniProt Q8VEB6 | -0.297 |
| UniProt Q91VU6 | 0.000634 |
| UniProt Q91W43 | 0.0257 |
| UniProt Q91X72 | 0.0562 |
| UniProt Q91XL9 | -0.0427 |
| UniProt Q91XF0 | 0.0542 |
| UniProt Q91ZZ3 | 0.0399 |
| UniProt Q921H9 | 0.00456 |
| UniProt Q91WG5 | 0.696 |
| UniProt Q922U2 | -0.226 |
| UniProt Q8VD31 | 0.000361 |
| UniProt Q91ZX7 | -0.049 |
| UniProt Q91WJ8 | -0.133 |
| UniProt Q91YY4 | -0.00211 |
| UniProt Q91YE7 | -0.526 |
| UniProt Q91WU0 | 0.16 |

2 neighbouring entries out of the list so far:

| Target | log2 fold change of pooled soluble protein |
| --- | --- |
| UniProt Q91XF0 | 0.0542 |
| UniProt Q91ZZ3 | 0.0399 |

— the supplement of paper PMC12819154, “High-throughput peptide-centric local stability assay extends protein–ligand identification to membrane proteins, tissues and bacteria” (Nature Structural & Molecular Biology, 2025)
